Record: PubChem BioAssay AID504793 (Drosophila RNAi Screening Center, 2011)
Aim: 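Knock-downs allowing continued mitosis even though DNA is damaged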 (primary screen). Cell system: Drosophila S2R+ cells. Knock-down reagent: long dsRNA against Drosophila genes, about 0.25 µg dsRNA per well. Timing: 4 days of dsRNA, then 4 hours of drug before read-out. Treatment: doxorubicin 0.5 µM for 4 hours to cause double-strand breaks, in cells also given a low, harmless dose of dsRNA against nbs to sensitise the assay. Detection: 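Per-well count of mitotic cells stained for phospho-histone H3 after doxorubicin exposure, used as mitotic index; counts are raw and not normalised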. Scale: mitotic cells: higher = more cells in mitosis, weaker G2 arrest. Hit rule: 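a call needs confirmation in secondary tests, with other dsRNAs and a check of mitotic timing without damage, not just a high primary count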. Meaning of the calls: active = confirmed in follow-up tests; inactive = not confirmed.
The screen tested about 23,000 reagents; below is an unselected part of those with a known target gene and a result. In the full data, 62 (0.27%) are marked active. 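Calls come from follow-up tests whose scores are not deposited, so confirmed genes may have low counts here; counts are not normalised per plate.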 The raw values are shown without normalisation. A plus sign joins genes that one reagent is predicted to hit.

| gene knocked down | amplicon | mitotic cells, replicate 1 | outcome |
| --- | --- | --- | --- |
| U2af38 (U2 small nuclear riboprotein auxiliary factor 38) | DRSC00796 | 1 | inactive |
| U2af38 (U2 small nuclear riboprotein auxiliary factor 38) | DRSC28068 | 4 | inactive |
| CG33500 | DRSC09115 | 7 | inactive |
| CG13615 | DRSC14618 | 12 | inactive |
| CG13615 | DRSC24018 | 6 | inactive |
| CG6380 | DRSC02950 | 5 | inactive |
| Oda (Ornithine decarboxylase antizyme) | DRSC07626 | 5 | inactive |
| Oda (Ornithine decarboxylase antizyme) | DRSC28076 | 6 | inactive |
| CG33125 | DRSC00145 | 7 | inactive |
| CG33125 | DRSC28619 | 5 | inactive |
| Bka (Bekka) | DRSC02757 | 9 | inactive |
| CG31663 | DRSC00078 | 18 | inactive |
| CG31663 | DRSC00389 | 9 | inactive |
| CG31663 | DRSC00390 | 13 | inactive |
| CG31663 | DRSC00393 | 9 | inactive |
| CG43867 | DRSC17836 | 5 | inactive |
| CG43867 | DRSC17837 | 8 | inactive |
| CG43867 | DRSC17943 | 5 | inactive |
| CG43867 | DRSC28000 | 5 | inactive |
| CG15650 | DRSC04241 | 5 | inactive |
| CG5292 | DRSC15763 | 4 | inactive |
| CG5292 | DRSC26304 | 3 | inactive |
| CG32032 | DRSC08961 | 6 | inactive |
| Rbp4 (RNA-binding protein 4) | DRSC16818 | 5 | inactive |
| Rbp4 (RNA-binding protein 4) | DRSC27818 | 3 | inactive |
| Fbp2 (Fat body protein 2) | DRSC03327 | 5 | inactive |
| Fbp2 (Fat body protein 2) | DRSC29036 | 4 | inactive |
| CG12069 | DRSC14470 | 9 | inactive |
| CG12069 | DRSC26204 | 4 | inactive |
| su(Hw) (suppressor of Hairy wing) | DRSC17074 | 15 | inactive |
| pita | DRSC04006 | 7 | inactive |
| pita | DRSC04435 | 11 | inactive |
| CG31675 | DRSC01825 | 2 | inactive |
| CG31675 | DRSC26340 | 10 | inactive |
| Polr2I (RNA polymerase II subunit I) | DRSC16832 | 23 | active |
| Alp11 (Alkaline phosphatase 11) | DRSC20080 | 14 | inactive |
| CG10761 | DRSC17753 | 11 | inactive |
| CG10761 | DRSC27665 | 6 | inactive |
| Mvb12 (Multivesicular body subunit 12) | DRSC20027 | 8 | inactive |
| Ip259 (Intronic Protein 259) | DRSC03352 | 11 | inactive |
| CG11596 | DRSC18540 | 6 | inactive |
| CG11596 | DRSC28643 | 7 | inactive |
| CG42671 | DRSC09093 | 4 | inactive |
| CG42671 | DRSC10321 | 6 | inactive |
| CG42671 | DRSC29747 | 1 | inactive |
| Arl4 (ADP ribosylation factor-like 4) | DRSC17156 | 9 | inactive |
| CG4306 | DRSC10409 | 6 | inactive |
| CG4306 | DRSC28986 | 6 | inactive |
| CG4045 | DRSC18518 | 5 | inactive |
| CG15126 | DRSC06548 | 5 | inactive |
| CG15597 | DRSC12283 | 13 | inactive |
| CG15597 | DRSC24202 | 7 | inactive |
| su(f) (suppressor of forked) | DRSC20907 | 8 | inactive |
| ItgaPS5 (Integrin alphaPS5 subunit) | DRSC04501 | 2 | inactive |
| ItgaPS5 (Integrin alphaPS5 subunit) | DRSC28842 | 5 | inactive |
| Osi15 (Osiris 15) | DRSC12178 | 7 | inactive |
| CG5390 | DRSC02855 | 3 | inactive |
| CG5390 | DRSC27775 | 9 | inactive |
| Pka-C3 (Protein kinase, cAMP-dependent, catalytic subunit 3) | DRSC09402 | 5 | inactive |
| Pka-C3 (Protein kinase, cAMP-dependent, catalytic subunit 3) | DRSC11254 | 3 | inactive |
| Pka-C3 (Protein kinase, cAMP-dependent, catalytic subunit 3) | DRSC25050 | 7 | inactive |
| Cyp6a18 (Cytochrome P450 6a18) | DRSC16632 | 13 | inactive |
| Gem3 (Gemin 3) | DRSC11144 | 4 | inactive |
| tplus3b + tplus3a | DRSC26400 | 11 | inactive |
| mRpL3 (mitochondrial ribosomal protein L3) | DRSC20100 | 7 | inactive |
| CG10602 | DRSC02075 | 3 | inactive |
| bsd (back seat driver) | DRSC05953 | 8 | inactive |
| CG15073 | DRSC06506 | 1 | inactive |
| CG15073 | DRSC27105 | 8 | inactive |
| CG14422 | DRSC17919 | 5 | inactive |
| CG14422 | DRSC25359 | 6 | inactive |
| CG5346 | DRSC15778 | 11 | inactive |
| CG5346 | DRSC26107 | 2 | inactive |
| RasGAP1 (Ras GTPase activating protein 1) | DRSC11172 | 6 | inactive |
| CG9903 | DRSC20213 | 10 | inactive |
| Lrpprc2 (Leucine-rich pentatricopeptide repeat containing 2) | DRSC18605 | 5 | inactive |
| Lrpprc2 (Leucine-rich pentatricopeptide repeat containing 2) | DRSC29751 | 10 | inactive |
| prage | DRSC17957 | 12 | inactive |
| prage | DRSC18490 | 18 | inactive |
| prage | DRSC18497 | 13 | inactive |
| CG30431 | DRSC04902 | 2 | inactive |
| CG30431 | DRSC04904 | 11 | inactive |
| CG5250 | DRSC15752 | 10 | inactive |
| slpr (slipper) | DRSC18225 | 2 | inactive |
| slpr (slipper) | DRSC23321 | 10 | inactive |
| lok (loki) | DRSC03567 | 3 | inactive |
| lok (loki) | DRSC25866 | 10 | inactive |
| CG10333 | DRSC02036 | 8 | inactive |
| CG10333 | DRSC29270 | 2 | inactive |
| me31B (maternal expression at 31B) | DRSC03569 | 21 | active |
| fmt (fiery mountain) | DRSC09717 | 23 | inactive |
| Picot | DRSC07508 | 4 | inactive |
| Picot | DRSC24256 | 6 | inactive |
| Nil (Nilkantha) | DRSC15953 | 7 | inactive |
| Nil (Nilkantha) | DRSC23322 | 4 | inactive |
| Cyp6t1 (Cytochrome P450 6t1) | DRSC20564 | 12 | inactive |
| Cyp6t1 (Cytochrome P450 6t1) | DRSC24235 | 10 | inactive |
| CG32650 | DRSC19899 | 4 | inactive |
| Cypl (Cyclophilin-like) | DRSC08362 | 6 | inactive |
| Cypl (Cyclophilin-like) | DRSC25421 | 6 | inactive |
| Nrt (Neurotactin) | DRSC11237 | 1 | inactive |
| RpS6 (Ribosomal protein S6) | DRSC18712 | 8 | inactive |
| RpS6 (Ribosomal protein S6) | DRSC25010 | 8 | inactive |
| UK114 | DRSC01973 | 4 | inactive |
| CG11413 + CG4622 | DRSC04109 | 7 | inactive |
| CG11413 + CG4622 | DRSC26158 | 10 | inactive |
| NFAT (NFAT nuclear factor) | DRSC18991 | 3 | inactive |
| NFAT (NFAT nuclear factor) | DRSC19393 | 17 | inactive |
| NFAT (NFAT nuclear factor) | DRSC24828 | 3 | inactive |
| NFAT (NFAT nuclear factor) | DRSC29663 | 9 | inactive |

17 entries from above, sorted by “mitotic cells, replicate 1”, low to high:
| gene knocked down | amplicon | mitotic cells, replicate 1 | outcome |
| --- | --- | --- | --- |
| Nrt (Neurotactin) | DRSC11237 | 1 | inactive |
| NFAT (NFAT nuclear factor) | DRSC18991 | 3 | inactive |
| NFAT (NFAT nuclear factor) | DRSC24828 | 3 | inactive |
| Nil (Nilkantha) | DRSC23322 | 4 | inactive |
| CG32650 | DRSC19899 | 4 | inactive |
| UK114 | DRSC01973 | 4 | inactive |
| Picot | DRSC24256 | 6 | inactive |
| Cypl (Cyclophilin-like) | DRSC08362 | 6 | inactive |
| Cypl (Cyclophilin-like) | DRSC25421 | 6 | inactive |
| Nil (Nilkantha) | DRSC15953 | 7 | inactive |
| CG11413 + CG4622 | DRSC04109 | 7 | inactive |
| RpS6 (Ribosomal protein S6) | DRSC18712 | 8 | inactive |
| RpS6 (Ribosomal protein S6) | DRSC25010 | 8 | inactive |
| Cyp6t1 (Cytochrome P450 6t1) | DRSC24235 | 10 | inactive |
| CG11413 + CG4622 | DRSC26158 | 10 | inactive |
| Cyp6t1 (Cytochrome P450 6t1) | DRSC20564 | 12 | inactive |
| NFAT (NFAT nuclear factor) | DRSC19393 | 17 | inactive |
